{"source": "PubChem BioAssay AID434970", "about": "(Sanford-Burnham Center for Chemical Genomics, 2010)", "note": "The other results are listed elsewhere or left out.", "data": [{"test_system": "intestinal alkaline phosphatase [Mus musculus]", "assay": "mouse intestinal phosphatase enzyme activation – biochemical, luminescence, single concentration, confirmation (AID 434970)", "settings": "purified mouse IAP, CDP-Star luminescence, 30 min; measured here: IAP activation factor; at 10 µM; stronger effect = higher value", "values": [{"smiles": "O=C(COc1ccccc1)OC1CN2CCC1CC2", "note": "(stereo not drawn)", "activation factor": 0.859}, {"smiles": "O=[N+]([O-])c1cc([N+](=O)[O-])c(-c2ccn[nH]2)s1", "activation factor": 0.316}, {"smiles": "COc1ccc(OP(C)(=O)Nc2cccc(F)c2)cc1", "note": "(stereo not drawn)", "activation factor": 0.97}, {"smiles": "O=P1(Nc2ccccn2)COc2ccccc2OC1", "activation factor": 1.07}, {"smiles": "CCOP(C)(=S)SCC(=O)NC(C)(CC)C(=O)O", "note": "(stereo not drawn)", "activation factor": 0.904}, {"smiles": "COc1ccc(OP(C)(=O)Nc2cccc(Br)c2)cc1", "note": "(stereo not drawn)", "activation factor": 1.06}, {"smiles": "CCN(CC)CC(O)COC(=O)C(O)(c1ccccc1)C1CCCCC1", "note": "(stereo not drawn)", "activation factor": 0.954}, {"smiles": "C[N+]1=C2C=CC=CC=C2SC12C([N+](=O)[O-])=CC([N+](=O)[O-])=C[C-]2[N+](=O)[O-]", "note": "(stereo not drawn)", "activation factor": 0.251}]}]}
